# Measurements from the supplement of paper PMC4635364.
# Where a name gives a salt, the structure may show the parent alone. Some of the results follow. Repeats in this data set agree poorly, so a single value says little.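 Cells: ReNCell VM human fetal ventral-midbrain neural progenitors, differentiated mitogen-free. Blinded raters compared doublecortin-stained (early neurons) or tyrosine hydroxylase-stained (dopaminergic neurons) images with untreated wells, where 0 means no change. After repeats and both raters were averaged, compounds scoring 2 or above became hits for retesting.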
# System: ReNCell VM
# Experiment: dopaminergic neuron differentiation score (TH+ cell fraction vs untreated, manual image score) (score (0 to 3)); higher = more TH+ dopaminergic neuron differentiation
# Details: library: Phytochemical; 2 uM; 4 weeks; BDNF 10 ng/ml + GDNF 10 ng/ml
row,Structure (SMILES),dopaminergic neuron differentiation score
1,CC1=CC(=O)C2=C(C)C[C@H](O)[C@@H]3[C@H](OC(=O)[C@H]3C)[C@H]12 [Austricine hydrate],inactive: 0
2,COC1=CC=C2[C@H]3Cc4ccc(OC)c5c4[C@@]2(CCN3C)[C@H]1O5 [Thebaine HCl],inactive: 0
3,c1cncc(C2=NCCC2)c1 [Myosmine],inactive: 0
4,CC[C@H]1CN2CC[C@H]1C[C@H]2[C@H](O)c1ccnc2ccc(OC)cc12 [Hydroquinine hydrobromide hydrate],inactive: 0

# Same assay, conditions: library: Prestwick; 2 uM; 4 weeks; BDNF 10 ng/ml + GDNF 10 ng/ml
row,Structure (SMILES),dopaminergic neuron differentiation score
1,C#CCN(C)[C@H](C)Cc1ccccc1 [Selegiline hydrochloride],inactive: 0
2,CCN(C)C(=O)Oc1cccc([C@H](C)N(C)C)c1 [Rivastigmine],inactive: 0
3,C[N+]1([O-])[C@@H]2C[C@@H](OC(=O)[C@H](CO)c3ccccc3)C[C@H]1[C@@H]1O[C@@H]12 (stereo partly specified) [Scopolamin-N-oxide hydrobromide],inactive: 0
4,CC(C)CC(N(C)C)C1(c2ccc(Cl)cc2)CCC1 (stereo unspecified) [Sibutramine HCl],inactive: 0
5,CC(=O)OC1CN2CCC1CC2 (stereo unspecified) [Aceclidine Hydrochloride],inactive: 0

# Same assay, conditions: library: Spectrum; 2 uM; 4 weeks; BDNF 10 ng/ml + GDNF 10 ng/ml
row,Structure (SMILES),dopaminergic neuron differentiation score
1,COc1ccc(O)c(C(C)(C)C)c1.COc1ccc(O)cc1C(C)(C)C,inactive: 0
2,CC(C)(C)NCC(O)c1cc(Cl)c(N)c(Cl)c1 (stereo unspecified),inactive: 0
3,COc1cc2c(cc1OC)[C@H](C)NCC2,inactive: 0
4,CC1C=CC=CCCC=CC=CC=CC=CC(OC2OC(C)C(O)C(N)C2O)CC2OC(O)(CC(O)C(O)CCC(O)CC(O)CC(O)CC(=O)OC(C)C(C)C1O)CC(O)C2C(=O)O (stereo unspecified),inactive: 0
5,C=CCc1ccc(OC)cc1,inactive: 0
6,CC1(C)C(=O)C=C[C@@]2(C)C1=C(O)C(=O)[C@]1(C)[C@@H]2CC[C@@]2(C)[C@H](c3ccoc3)C[C@H]3O[C@]321,inactive: 0
7,O=P1(NCCCl)OCCCN1CCCl (stereo unspecified),inactive: 0
8,c1ccc2c(c1)[nH]c1cnccc12,inactive: 0
9,CO[C@H]1[C@H](O)[C@H](O[C@H]2CC[C@@]3(C=O)[C@H](CC[C@@H]4[C@@H]3CC[C@]3(C)[C@@H](C5=CC(=O)OC5)CC[C@]43O)C2)O[C@@H](C)[C@@H]1O,inactive: 0
10,COC(=O)[C@@H]1C[C@H](OC(C)=O)C(=O)[C@H]2[C@@]1(C)CC[C@H]1C(=O)O[C@H](c3ccoc3)C[C@]21C,inactive: 0
11,CC1=C2C(=CO[C@H](C)[C@H]2C)C(O)=C(C(=O)O)C1=O,inactive: 0

# Same assay, conditions: library: Tocriscreen; 2 uM; 4 weeks; BDNF 10 ng/ml + GDNF 10 ng/ml
row,Structure (SMILES),dopaminergic neuron differentiation score
1,CN1[C@@H]2CC[C@H]1CC(OC(=O)N1Cc3ccccc3NC1=O)C2 (stereo partly specified) [DAU 5884 hydrochloride],inactive: 0
2,CC(C(=O)OC1CC2CCC(C1)N2C)c1ccc(Br)cc1 (stereo unspecified) [PG-9 maleate],inactive: 0
3,CN1CCN(c2ccc3ccccc3n2)CC1 [N-Methylquipazine dimaleate],inactive: 0
4,O=[N+]([O-])c1cc(O)c(O)c([N+](=O)[O-])c1,inactive: 0
5,CN(C(=O)Cc1ccccc1)C(CN1CCCC1)c1ccccc1 (stereo unspecified) [N-MPPP Hydrochloride],inactive: 1
6,"CC12NC(Cc3ccccc31)c1ccccc12 (single isomer, unassigned; (+)) [(+)-MK 801 maleate]",inactive: 0

# Part of the list above in order of count of non-hydrogen atoms, largest number first.
row,Structure (SMILES),dopaminergic neuron differentiation score
1,CN1[C@@H]2CC[C@H]1CC(OC(=O)N1Cc3ccccc3NC1=O)C2 (stereo partly specified) [DAU 5884 hydrochloride],inactive: 0
6,"CC12NC(Cc3ccccc31)c1ccccc12 (single isomer, unassigned; (+)) [(+)-MK 801 maleate]",inactive: 0
4,O=[N+]([O-])c1cc(O)c(O)c([N+](=O)[O-])c1,inactive: 0
